# Assay: Spontaneous imbibition in Edwards limestone cores saturated with crude oil
# Settings: ambient conditions, alkyl chain n=8-10 (FIG. 9A)
row,Substance,final oil production from limestone samples
1,"CH3(CH2)8-10(OC2H4)8.3OH [CH2 8-10, EO 8]",higher amount of oil than the base surfactant
2,"CH3(CH2)8-10(OC2H4)6-6.5OH [CH2 8-10, EO 6]",higher amount of oil than the base surfactant
